These are yes or no findings as the source states them, for the method shown. Binding seen in cells or lysates may run through a third protein. Some entries that bind do so weakly or less than the wild type. For some of these results: Where a sequence is shown, tags or fusion partners need not be part of it.

By UniProt entry, the sequences of proteins in these tests, tags left out.
UniProt P51784: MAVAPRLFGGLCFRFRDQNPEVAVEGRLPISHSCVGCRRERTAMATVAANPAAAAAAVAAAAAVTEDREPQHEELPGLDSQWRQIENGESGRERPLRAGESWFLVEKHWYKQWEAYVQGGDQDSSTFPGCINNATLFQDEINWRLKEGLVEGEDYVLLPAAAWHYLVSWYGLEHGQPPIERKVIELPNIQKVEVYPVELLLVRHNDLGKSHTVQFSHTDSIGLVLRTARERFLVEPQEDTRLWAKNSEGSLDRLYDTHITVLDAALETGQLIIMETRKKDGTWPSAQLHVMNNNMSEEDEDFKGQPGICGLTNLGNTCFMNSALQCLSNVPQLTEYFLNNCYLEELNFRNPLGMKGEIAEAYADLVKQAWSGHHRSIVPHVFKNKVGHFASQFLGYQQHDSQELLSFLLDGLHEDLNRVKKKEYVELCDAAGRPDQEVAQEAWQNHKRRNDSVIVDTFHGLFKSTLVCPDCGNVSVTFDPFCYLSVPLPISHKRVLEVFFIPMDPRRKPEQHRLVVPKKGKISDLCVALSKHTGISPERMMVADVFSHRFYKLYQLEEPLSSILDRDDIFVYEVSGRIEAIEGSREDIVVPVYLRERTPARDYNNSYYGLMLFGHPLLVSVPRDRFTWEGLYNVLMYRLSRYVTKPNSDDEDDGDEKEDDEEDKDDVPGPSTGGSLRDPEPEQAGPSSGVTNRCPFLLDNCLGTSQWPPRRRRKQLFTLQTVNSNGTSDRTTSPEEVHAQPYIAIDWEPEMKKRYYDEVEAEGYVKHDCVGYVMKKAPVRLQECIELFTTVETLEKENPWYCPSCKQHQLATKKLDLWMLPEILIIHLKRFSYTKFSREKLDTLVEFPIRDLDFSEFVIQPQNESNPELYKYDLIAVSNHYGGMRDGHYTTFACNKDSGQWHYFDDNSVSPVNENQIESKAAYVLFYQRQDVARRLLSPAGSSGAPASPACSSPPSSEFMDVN

Assay [1] addresses T1, GST-LSH (lymphoid-specific helicase) (human (cDNA from GES-1 cells)) (UniProt Q9NRZ9).
T1 sequence: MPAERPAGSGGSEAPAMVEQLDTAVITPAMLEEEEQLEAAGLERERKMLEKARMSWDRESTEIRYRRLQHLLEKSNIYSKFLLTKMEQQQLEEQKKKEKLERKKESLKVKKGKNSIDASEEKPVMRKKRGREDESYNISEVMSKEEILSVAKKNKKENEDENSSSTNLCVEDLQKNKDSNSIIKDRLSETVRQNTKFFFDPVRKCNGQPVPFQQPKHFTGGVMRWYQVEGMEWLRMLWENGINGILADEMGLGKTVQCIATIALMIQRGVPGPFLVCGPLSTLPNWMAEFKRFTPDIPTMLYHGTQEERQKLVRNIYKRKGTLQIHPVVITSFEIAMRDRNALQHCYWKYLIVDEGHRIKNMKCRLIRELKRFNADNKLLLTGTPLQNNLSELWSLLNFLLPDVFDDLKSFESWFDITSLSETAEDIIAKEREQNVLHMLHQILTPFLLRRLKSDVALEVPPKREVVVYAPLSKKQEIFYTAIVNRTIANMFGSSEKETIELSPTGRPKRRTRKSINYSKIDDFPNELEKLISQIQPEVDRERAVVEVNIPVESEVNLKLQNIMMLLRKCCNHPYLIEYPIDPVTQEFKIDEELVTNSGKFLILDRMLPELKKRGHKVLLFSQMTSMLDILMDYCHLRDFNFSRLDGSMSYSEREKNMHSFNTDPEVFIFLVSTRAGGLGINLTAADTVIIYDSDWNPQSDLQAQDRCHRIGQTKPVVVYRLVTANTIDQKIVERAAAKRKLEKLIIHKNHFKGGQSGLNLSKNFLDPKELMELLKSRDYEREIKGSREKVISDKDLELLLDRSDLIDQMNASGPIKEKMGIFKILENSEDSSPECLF
The assay is described as follows: pull-down; GST-LSH on Glutathione Sepharose 4B resins incubated with in vitro translated Flag-tagged USP11; 50 mM Tris-HCl pH 7.4, 150 mM NaCl, 0.2% Triton X-100, 10% glycerol, 1 mM DTT; 4 °C overnight; WB; only the target purified.

For assay [2], the target named is T2, Flag-LSH (lymphoid-specific helicase), expressed in HEK293T cells (human (cDNA from GES-1 cells)) (UniProt Q9NRZ9).
T2 sequence: T1 sequence
The assay is described as follows: co-IP; Flag-LSH and MYC-USP11 in HEK293T cells; MYC-IP and Flag-IP; IP lysis buffer 50 mM Tris-HCl pH 7.4, 150 mM NaCl, 1 mM EDTA, 0.3% NP-40; protein A/G agarose, 4 °C, 6 h; WB.

The target in assay [3] is T3, lymphoid-specific helicase (LSH), endogenous in HCT116 cells (human (endogenous in HCT116)) (UniProt Q9NRZ9).
T3 sequence: T1 sequence
The assay is described as follows: co-IP; endogenous proteins; cytoplasmic and nuclear extracts fractionated from HCT116 cells; IP with USP11 or LSH antibody; WB.

Assay [4] addresses T3, lymphoid-specific helicase (LSH), endogenous in HCT116 cells (human (endogenous in HCT116)). Kind of assay: co-IP; endogenous proteins in HCT116 cells; IP with LSH antibody after DMSO or erastin (20 µM) for 24 h, and IP with USP11 antibody after erastin (20 µM) for 0, 4, 8 and 12 h; WB.

Take “Flag-tagged USP11 (ubiquitin-specific protease 11), in vitro translated (from UniProt P51784 1-963) (enzyme)”: the binding result in assay [1] is “binds”.
With “MYC-USP11 (ubiquitin-specific protease 11), expressed in HEK293T cells (from UniProt P51784 1-963) (enzyme)”, the binding entry in assay [2] was “binds”.
As for “ubiquitin-specific protease 11 (USP11), endogenous in HCT116 cells (from UniProt P51784 1-963) (enzyme)”, the binding result in assay [3] and in assay [4] was “binds” in each case.

These data come from publication PMC10326026.
